Laboratory results from PubChem BioAssay AID493014 (National Center for Advancing Translational Sciences (NCATS), 2011).
This is one part of the list. Further columns of the screen follow, without active or inactive calls. Most of these compounds were active or inconclusive in the main read-out, so they are no random draw. The note in brackets gives the kind of curve behind each potency; many fits are weak.

Test: qHTS Assay to Find Inhibitors of Chronic Active B-Cell Receptor Signaling
Conditions: ABC-DLBCL IkBa-CBG/CBR reporter, luminescence ratio (green luciferase fused to IkBa over red control in TMD8 lymphoma cells), 4 h
How it was run: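 Compounds up to 46 uM were incubated four hours with TMD8 cells whose green CBG68 luciferase is fused to IkappaBalpha; red CBR luminescence normalised the signal, and concentration-effect curves were fitted to fusion, red and ratio data.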

[1] = measured here: CBR red luminescence, cell number
[2] = measured here: IkBa-CBG green luminescence

SMILES	AC50 [1]	AC50 [2]
O=C(Nc1cc(S(=O)(=O)N2CCCCC2)ccc1O)c1ccccc1NS(=O)(=O)c1ccc(F)c(F)c1	0.116 µM [falling, full curve, poor fit]	
COc1cc(C(=S)N2CCCC2)ccc1OCc1ccc(C)cc1	35.5 µM [falling, single point]	
CCN(CC(=O)NC(C)C)Cc1nc2sc3c(c2c(=O)[nH]1)CCC3	32.6 µM [falling, single point]	
COc1ccc2c(c1)C(C)=CC(C)(C)N2S(=O)(=O)c1ccc(NC(C)=O)cc1		7.08 µM [falling, full curve]
CCOC(=O)C1CCN(C(=O)COC(=O)/C=C/c2ccccc2)CC1	29.1 µM [falling, single point]	
COc1ccc(OC)c(C2CC(=O)Nc3n[nH]c(-c4ccccc4)c32)c1 (stereo unspecified)	31.6 µM [rising, single point]	12.6 µM [falling, partial curve]
CN(C)c1ccc(-c2nnc(-c3ccccc3F)o2)cc1	8.91 µM [falling, partial curve]	
CCn1c(/C(C#N)=C(\O)CCc2ccccc2)nc2ccccc21	0.326 µM [rising, full curve, poor fit]	
O=C(NCc1ccc2c(c1)OCO2)c1ccc(CS(=O)(=O)c2ccc(Br)cc2)o1	29.1 µM [falling, single point]	
O=C(Nc1ccc(OC(F)F)cc1)c1ccccn1	6.31 µM [falling, full curve]	
Cc1ccc(C(C)C)c(OCC(=O)NN2C(=O)c3ccccc3C2=O)c1	35.5 µM [rising, single point]	35.5 µM [falling, single point]
COc1ccc(C(C)NS(=O)(=O)Cc2ccccc2)cc1 (stereo unspecified)	35.5 µM [rising, single point]	
O=C(C1CC(c2ccc(F)cc2)=NO1)N1CCCc2ccccc21 (stereo unspecified)	6.51 µM [rising, partial curve]	
c1cncc(-c2nnc3n2N=C(c2cccs2)CS3)c1	20.6 µM [falling, single point]	
CC(=O)N1c2ccc(S(=O)(=O)NCC3CCC(C(=O)Nc4cc(C)ccn4)CC3)cc2CC1C (stereo unspecified)	12.6 µM [falling, single point]	
CC1C(c2ccccc2)N(C)CCC12NC(=O)NC2=O (stereo unspecified)	23.1 µM [rising, single point]	
Cc1nc(/C=C/c2ccccc2)cc(/C=C/c2ccccc2)n1	13 µM [rising, partial curve]	
N=c1sccn1CC(=O)Nc1cccc2ccccc12	6.51 µM [falling, single point]	
COCC(C)n1c(C)cc(C(=O)CSc2ccc(NC(C)=O)cc2)c1C (stereo unspecified)	6.51 µM [rising, single point]	
c1ccc(C2=Nc3ccccc3NC(c3ccccc3)C2)cc1 (stereo unspecified)	35.5 µM [falling, single point]	
c1ccc(Oc2ccc(-c3ccn[nH]3)cc2)cc1	0.224 µM [rising, full curve, poor fit]	

Single entries from the results shown:
For AC50 [1], `O=C(Nc1cc(S(=O)(=O)N2CCCCC2)ccc1O)c1ccccc1NS(=O)(=O)c1ccc(F)c(F)c1` has 0.116 µM [falling, full curve, poor fit]
For AC50 [1], `N=c1sccn1CC(=O)Nc1cccc2ccccc12` has 6.51 µM [falling, single point]
For AC50 [1], `CN(C)c1ccc(-c2nnc(-c3ccccc3F)o2)cc1` has 8.91 µM [falling, partial curve]

Next entries follow:

SMILES	AC50 [1]	AC50 [2]
Cc1ccc(/C=N/NC(=O)c2n[nH]c3c2CCCC3)cc1	1.41 µM [rising, full curve, poor fit]	1 µM [falling, full curve]
O=C(c1ccccc1)C1CN(Cc2ccccc2)CCC1(O)c1ccccc1 (stereo unspecified)	3.16 µM [rising, single point]	
COc1ccc(-n2nnnc2-c2cccc(OC)c2)cc1		18.4 µM [falling, single point]
CCn1c(SCC(=O)c2ccc3c(c2)Cc2ccccc2-3)nnc1-c1ccc(N)cc1	14.1 µM [rising, single point]	
CCOC(=O)C1(Cc2ccccc2Cl)CCN(C(=O)CN2CCOC2=O)CC1	12.6 µM [rising, partial curve, poor fit]	
CN(Cc1ccccc1)C(=O)c1[nH]cnc1C(=O)N[C@@H](CCCCNC(=O)OC(C)(C)C)C(=O)OC(C)(C)C	6.31 µM [rising, partial curve, poor fit]	
O=C(Nc1ccc2nc(-c3cccs3)[nH]c2c1)c1ccco1		18.4 µM [rising, partial curve, poor fit]
COC(=O)c1c(C(=O)OC)n(CCCN)c2ccc(C)cc12	29.1 µM [falling, single point]	
COc1ccc(CC(=O)NNC(=O)c2ccc(Br)s2)cc1OC	16.4 µM [rising, partial curve]	
O=C(Cc1cccs1)Nc1nc(-c2ccc(F)cc2F)cs1	2.06 µM [falling, partial curve, poor fit]	
C=CCNC(=S)N/N=C/c1ccc(C)s1	1.78 µM [rising, full curve, poor fit]	3.16 µM [falling, partial curve, poor fit]
CC1CCCCC1Nc1ncnc2sccc12 (stereo unspecified)	12.6 µM [falling, partial curve]	
Cc1nnc(NC(=O)CSc2nnc(CC(=O)Nc3ccccc3C)n2C)s1	35.5 µM [rising, partial curve, poor fit]	
CSc1ccc(-c2sc(Nc3ccccc3)n[n+]2-c2ccc(F)cc2)cc1	10 µM [falling, partial curve, poor fit]	
Clc1ccc(C[n+]2cc(-c3ccccc3)n3c2CCCCC3)c(Cl)c1	12.6 µM [falling, single point]	
O=C(COc1ccc(Cl)cc1Br)NC1CC1	5.17 µM [rising, partial curve, poor fit]	
O=C(Nc1ccc(OC(F)(F)C(F)F)c(NC(=O)c2cccc(F)c2)c1)c1cccc(F)c1	2.06 µM [rising, partial curve]	
COc1cccc(NC(=O)c2ccc3c(c2)C(=O)N(CC2CCCO2)C3=O)c1 (stereo unspecified)	17.8 µM [falling, partial curve, poor fit]	
Cc1cccc(C)c1NCc1n[nH]c(=S)n1-c1ccccc1		17.8 µM [falling, single point]
CCOC(=O)/C(=N\Nc1ncnc2ccccc12)c1ccc(C)cc1	14.1 µM [falling, single point]	
Cc1cc(C)c2oc(=O)cc(CN3CCCCC3)c2c1	11.2 µM [rising, single point]	

SMILES	AC50 [1]	AC50 [2]
CCOC(=O)N1CCN(c2c(NCc3ccccn3)c(=O)c2=O)CC1	3.66 µM [rising, partial curve, poor fit]	
C#CCOCCOCCOCCNc1nc(N2CCN(C(=O)[C@H](CCCN=C(N)N)n3cc(C(N)[C@@H](C)CC)nn3)CC2)nc(N2CCN(C(=O)[C@H](CCCCN)n3cc([C@@H](N)[C@H](C)CC)nn3)CC2)n1 (stereo partly specified)	2.06 µM [rising, full curve]	
COc1cc(/C=C2/C(=O)N=C(N)N2C)cc(OC)c1OC	29.1 µM [rising, single point]	
CCCCc1ccc(NC(=O)COCC)cc1	0.366 µM [rising, full curve, poor fit]	
COc1ccc(NC(=O)Nc2ccc3c(c2)CCC3)cc1	3.16 µM [rising, full curve]	
N#C/C(C(=O)N1CCOCC1)=c1/s/c(=C\c2ccccn2)c(=O)n1-c1ccccc1	10 µM [rising, partial curve, poor fit]	
COc1ccc2[nH]c3c(=O)n(CCCCC(=O)NCCN4CCCC4)c(=S)[nH]c3c2c1	14.6 µM [falling, partial curve]	
O=C(O)c1ccccc1-c1ccccc1C(=O)Nc1ccc(-c2nc3cc(Cl)ccc3o2)cc1	6.31 µM [rising, partial curve, poor fit]	
NC(=O)C1CCN(c2nc(-c3ccc(F)cc3)cs2)CC1	29.1 µM [rising, partial curve, poor fit]	
O=C(NCC1CCCO1)c1ccc(NC(=O)c2cccc([N+](=O)[O-])c2)cc1 (stereo unspecified)	6.31 µM [rising, partial curve, poor fit]	
O=C1NC(=O)C(CC(=O)N(Cc2ccco2)C2(C(=O)NC3CCCCC3)CCCCC2)N1 (stereo unspecified)	18.4 µM [rising, partial curve, poor fit]	
Cc1ccc(C)c(S(=O)(=O)N2CCN(C(=O)c3cccn3C)CC2)c1	3.26 µM [falling, single point]	
CCc1c(C)nc2nc(SCc3ccccc3)[nH]n2c1=O	5.01 µM [falling, full curve, poor fit]	
CC(=O)c1cc(-c2ccccc2)n(CCC(=O)Nc2ccc(C(C)C)cc2)c1C	17.8 µM [falling, single point]	
O=C(Cc1csc(Nc2nc(=S)[nH]c3ccccc23)n1)N1CCN(c2cccc(Cl)c2)CC1	5.01 µM [rising, full curve, poor fit]	
CC1=N/C(=C\c2ccc([N+](=O)[O-])cc2)C(=O)N1c1ccc(Br)c(C)c1	5.01 µM [rising, single point]	
C=CCN1C(=O)S/C(=C\c2ccc(N3CCOCC3)cc2C)C1=O	2.59 µM [rising, full curve]	
CCCCC(=O)NC(c1ccco1)c1c(O)ccc2ccccc12 (stereo unspecified)	17.8 µM [falling, partial curve, poor fit]	
CCCCCCCC(=O)N/N=C/c1cccnc1	0.731 µM [falling, partial curve, poor fit]	
O=C(COC(=O)CCOc1ccccc1)Nc1cc(S(=O)(=O)N2CCCCC2)ccc1Cl	20.6 µM [falling, single point]	
